Source: article PMC7749160
These are yes or no findings as the source states them, for the method shown. Binding seen in cells or lysates may run through a third protein. Some entries that bind do so weakly or less than the wild type. Where a sequence is shown, tags or fusion partners need not be part of it.

Protein sequences, listed by entry. Tags and fused reporters are not part of them. Lines headed by an entry give the natural chain unless they say otherwise; changes in a name come on top.
UniProt A0QSL8: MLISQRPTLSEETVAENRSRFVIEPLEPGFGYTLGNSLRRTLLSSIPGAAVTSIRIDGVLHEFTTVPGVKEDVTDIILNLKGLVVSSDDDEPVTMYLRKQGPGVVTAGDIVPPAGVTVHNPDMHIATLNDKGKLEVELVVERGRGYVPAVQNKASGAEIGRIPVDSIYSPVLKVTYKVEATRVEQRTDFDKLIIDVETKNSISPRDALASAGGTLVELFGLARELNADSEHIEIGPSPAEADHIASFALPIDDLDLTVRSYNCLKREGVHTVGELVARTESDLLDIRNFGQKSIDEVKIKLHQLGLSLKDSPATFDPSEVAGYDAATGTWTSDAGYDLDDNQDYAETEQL

Experiments:
[1] = target: T1, Mycobacterium smegmatis HelD-FLAG (Mycobacterium smegmatis) (UniProt A0QUE0); assay: co-IP; M. smegmatis lysates (20 mM Tris-HCl pH 8, 150 mM KCl, 1 mM MgCl2) on ANTI-FLAG M2 agarose overnight at 4 °C, eluted with 3x FLAG peptide; SDS-PAGE with bands identified by mass spectrometry, or western blot (anti-β, anti-σA)
T1 sequence: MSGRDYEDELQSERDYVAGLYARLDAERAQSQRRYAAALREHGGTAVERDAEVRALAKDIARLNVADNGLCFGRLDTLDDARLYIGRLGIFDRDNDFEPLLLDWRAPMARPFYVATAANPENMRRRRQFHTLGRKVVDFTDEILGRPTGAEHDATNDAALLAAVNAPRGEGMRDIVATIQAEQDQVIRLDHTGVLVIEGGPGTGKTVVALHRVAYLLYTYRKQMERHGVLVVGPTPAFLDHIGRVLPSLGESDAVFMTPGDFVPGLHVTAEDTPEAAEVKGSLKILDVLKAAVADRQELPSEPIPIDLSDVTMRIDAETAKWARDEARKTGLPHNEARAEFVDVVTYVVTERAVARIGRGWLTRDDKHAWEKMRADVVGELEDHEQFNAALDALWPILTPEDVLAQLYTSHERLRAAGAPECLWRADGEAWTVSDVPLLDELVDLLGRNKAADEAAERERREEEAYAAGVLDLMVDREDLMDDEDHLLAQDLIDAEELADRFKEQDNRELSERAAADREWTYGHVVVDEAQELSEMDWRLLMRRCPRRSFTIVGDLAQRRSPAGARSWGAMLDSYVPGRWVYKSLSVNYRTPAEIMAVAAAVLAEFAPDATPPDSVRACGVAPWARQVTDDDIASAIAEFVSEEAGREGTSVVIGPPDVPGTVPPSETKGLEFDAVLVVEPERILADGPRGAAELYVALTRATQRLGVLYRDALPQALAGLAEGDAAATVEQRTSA

[2] = target: T2, Mycobacterium smegmatis RbpA-FLAG (Mycobacterium smegmatis) (UniProt A0QZ11); assay: as above
T2 sequence: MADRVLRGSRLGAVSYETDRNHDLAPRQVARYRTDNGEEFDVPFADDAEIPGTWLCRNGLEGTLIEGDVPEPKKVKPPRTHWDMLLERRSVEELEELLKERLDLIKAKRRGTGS

## Mycobacterium smegmatis RNAP core, endogenous (from UniProt A0QSL8 1-350; P60281 1-1169; A0QS66 1-1317; A0QWT1 1-107) (complex)
[1]
  binding: binds
[2]
  binding: binds
